Percent effect of library compounds

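Phenotypic screen: M. tuberculosis growth, glucose 7H9 medium, 3 days; the read-out is not stated. Tested at 50 µM. Higher reads as more growth inhibition (inferred: compounds with an IC50 in retests scored well above the rest). About 69,000 compounds were tested under these conditions; 1.1% (about 760) showed 50% or more at least once.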

Results are given as percent effect.
How 0% and 100% were set is not recorded. Most values in the screen are low, and negative values occur.
The compounds are a random part of those screened.
Two or more numbers in one place are separate tests of the same structure; such repeats can differ widely.

| # | structure | Percent Effect |
|---|---|---|
| 1 | `COC(=O)CCC(=O)N1CCC2(CN(Cc3ccc(Cl)cc3)C2)C1` | -16.74% |
| 2 | `COc1ccc(CN(C)Cc2cccc(C#N)c2)c(OC)c1` | 7.528% |
| 3 | `COc1ccc(F)cc1C(=O)N(C)Cc1cc(C)on1` | -37.51% |
| 4 | `c1ccc2sc(N3CCCC(Cn4cncn4)C3)nc2c1` (stereo unspecified) | -16.58% and -4.205% |
| 5 | `CCN(Cc1ccc(C#N)cc1F)C(=O)C(C)(C)C` | -8.713% |
| 6 | `COc1ccc(OCC(C)NS(C)(=O)=O)cc1` (stereo unspecified) | 14.83% |
| 7 | `CCC1CN(C(=O)COc2ccc(NC(C)=O)cc2)CCO1` (stereo unspecified) | -6.381% and -33.92% |
| 8 | `O=S(=O)(c1ccc(Cl)cc1)N1CCC(OCc2ccccn2)C1` (stereo unspecified) | 17.67% |
| 9 | `COCC1c2nnn(C)c2CCN1C(=O)Cc1ccccn1` (stereo unspecified) | 8.067% |
| 10 | `c1csc(-c2noc(CN3CCCC3Cn3cccn3)n2)c1` (stereo unspecified) | 19.69% |
| 11 | `CCS(=O)(=O)N1CCN(C(=O)C(C)C)CC2(CC(=O)N(C)C2)C1` (stereo unspecified) | -0.8958% |
| 12 | `Cc1cc(C)c2cc(C(=O)N3CCNC(=O)C3)[nH]c2c1` | -16.35% |
| 13 | `CC(C)NC(=O)C1CCC2(CCNCC2)C1` (stereo unspecified) | 2.807% |
| 14 | `[H][C@@]12CCN(C[C@@H]1CC)[C@@H](CNC(=O)Nc1ccccc1)C2` | -18.65% and 7.148% |
| 15 | `CC(=O)NCCn1ccc(-c2ccccn2)n1` | 2.036% |
| 16 | `CN(CC(=O)N1CCCC1c1noc(C2CC2)n1)C1CC1` (stereo unspecified) | -22.99% |
| 17 | `COc1cc(C)nc(N2CCN(C(=O)CCc3ccsc3)CC2)n1` | 40.23% |
| 18 | `O=C(CCc1nc(C2CC2)no1)c1ccc2c(c1)OCCO2` | 6.335% |
| 19 | `CCN1CCCC1CN(Cc1ccoc1)CC1CCN(CCOC)CC1` (stereo unspecified) | 37.68% |
| 20 | `COc1ccccc1C1(CNc2snc(Cl)c2C#N)CCOCC1` | -23.22% |
| 21 | `CN(C)c1nccc(N(C)C2CCN(CC3CCOC3)CC2)n1` (stereo unspecified) | 12.99% |
| 22 | `CN(C)C(=O)N1CCCC2(CCN(Cc3ccc(Cl)c(F)c3)C2)C1` (stereo unspecified) | -23.86% and 4.437% |
| 23 | `Cc1cccc(OCC(=O)NS(=O)(=O)Cc2ccccc2)c1` | -23.05% |
| 24 | `O=C(c1cn(-c2ccccc2)nn1)N1CCOCC(O)C1` (stereo unspecified) | 7.097% |
| 25 | `O[C@@H]1CCN(c2ccc3c(Cl)ccnc3c2F)C1` | 20.09% |
| 26 | `CN(C)CC1CN(C(=O)Cc2ccccc2)Cc2nccn2C1.O=C(O)C(F)(F)F` (stereo unspecified) | -5.786% |
| 27 | `Fc1ccc(C(CNc2ccncn2)N2CCCCC2)cc1` (stereo unspecified) | -19.2% |
| 28 | `CCN(CC)c1ccc(NC(=O)NC(C)Cn2cccn2)cn1` (stereo unspecified) | -29.83% |
| 29 | `Fc1ccc(-c2cc(NCCC3CCOC3)n3nccc3n2)cc1` (stereo unspecified) | -1.343% |
| 30 | `Cn1cc(C(=O)N2CCN(Cc3ccccn3)CC2)ccc1=O` | -13.68% |
| 31 | `O=C(NCCNc1ncccn1)C1CC(=O)N(Cc2ccccc2)C1` (stereo unspecified) | 21.94% |
| 32 | `Cc1nnc2n1CCN(C(=O)CN(C)Cc1ccccc1)C2` | 8.81% |
| 33 | `CC(C(=O)N1CCOCC1)n1cncn1` (stereo unspecified) | -3.547% |
| 34 | `Cc1ccc(CNC(=O)NC2CCCc3c2cnn3CCO)cn1` (stereo unspecified) | -18.16% |
| 35 | `Cc1nccn1CCC1CCN(c2ccncn2)CC1` | -3.765% and -35.1% |
| 36 | `CCOCCN1CCN(Cc2nnc(-c3ccco3)o2)CC1` | 6.917% |
| 37 | `CCc1n[nH]c(C2CN(C(=O)c3cnns3)CCO2)n1` (stereo unspecified) | -1.334% |
| 38 | `O=C(CO)N1CC[C@@H](N2CCN(c3ccccc3F)CC2)[C@H](O)C1` | -3.654% and -21.35% |
| 39 | `[H][C@@]12CS(=O)(=O)C[C@]1([H])N(C(=O)c1ccc3nccnc3c1)CCN2CCO` | -0.1336% and -6.465% |
| 40 | `CCn1nccc1S(=O)(=O)N1CCC2(CCCN(C(C)C)C2=O)C1` (stereo unspecified) | -28.94% |
| 41 | `CCCn1nc(C)c(CN2CC3(CCOC3)CCC2=O)c1C` (stereo unspecified) | -10.32% and -0.4713% |
| 42 | `Cc1ccc(CN2CCN(c3cc(NCCO)ncn3)CC2CCO)o1` (stereo unspecified) | 7.858% and 9.425% |
| 43 | `CC(=O)NCCCNC(=O)Nc1ccccc1-n1nc(C)cc1C` | 15.96% |
| 44 | `O=C(CCN1CCc2ccccc21)N1C[C@@H](O)[C@H](N2CCCC2)C1` | -2.749% |
| 45 | `CC(C)NC(=O)NC[C@@]1(COc2cnccn2)C[C@@H](O)[C@@H](O)C1.Cl` | 7.407% and 2.765% |
| 46 | `[H][C@]1([C@H](O)c2ccc(NC(C)=O)cc2)COCC(=O)N1CC(C)C` | 13.78% and 29.91% |
| 47 | `CCNc1ncc(C(=O)NCCNc2ccncc2C)cn1` | -2.056% and 8.182% |
| 48 | `Cn1ccc(C(=O)N2CCC3(CCN3c3ncccn3)C2)n1.O=C(O)C(F)(F)F` (stereo unspecified) | -6.25% |
| 49 | `CC(C)OCc1ncn2c1CN(CC1CC1)CCC2.O=C(O)C(F)(F)F` | -34.9% |
| 50 | `COCC(=O)N1CCN(C)c2ncccc2C1` | 6.81% and -2.393% |
| 51 | `Cc1ccccc1CN1C[C@@H](CN(C)CCO)[C@@H](CO)C1` | -3.553% |
| 52 | `COc1ccc(C2CCCCCN2S(=O)(=O)N(C)C)cc1` (stereo unspecified) | 2.183% and 19.04% |
| 53 | `CC(C)c1nccc(CN2CCCC(O)(CN(C)C)CC2)n1` (stereo unspecified) | -29.63% |
| 54 | `Cc1nnc2n1CCN(C(=O)c1cc(Br)c(Cl)[nH]1)C2` | 13.52% |
| 55 | `O=C(Nc1ccccc1-c1cccs1)N1CCN(CC(F)F)CC1` | -22.38% |
| 56 | `O=C(NCCCN1CCCC1)c1n[nH]c(=O)c2ccccc12` | -7.796% |
| 57 | `COc1cccc(CNC(=O)N2CCCC(Cn3cc(CN)nn3)C2)c1` (stereo unspecified) | 16.6% |
| 58 | `Cc1nn(C)c(N(C)C)c1CNC1CCc2c(F)cccc21.Cl` (stereo unspecified) | -19.59% |
| 59 | `O=C(CN1C=Nc2ccccc2S1(=O)=O)NCCc1cccs1` | 10.25% |
| 60 | `N#Cc1c(N)nc2c(c1-c1c[nH]nc1C1CCCCC1)CC(N)CC2` (stereo unspecified) | 7.142% |
| 61 | `Cc1ccccc1OCCCNC(=O)C1(C)CC(=O)N2C=CC=CC2=N1` (stereo unspecified) | -18.82% |
| 62 | `C=C(C)CN1CCC(NC(=O)Nc2ccc(F)c(C(N)=O)c2)CC1` | 18.14% |
| 63 | `Cc1ccc(C2CCCN2CC(=O)N(CCC#N)c2ccccc2)cc1` (stereo unspecified) | 15.18% and 28.56% |
| 64 | `COC(=O)c1cccc(S(=O)(=O)N2CSCC2C(=O)N(C)C2CC2)c1` (stereo unspecified) | 7.124% and -5.568% |
| 65 | `O=C(CS(=O)(=O)Cc1cccc(Br)c1)Nc1cn[nH]c1` | 16.48% and 5.041% |
| 66 | `CCOCC(=O)N1CCC(CSCc2ccco2)CC1` | 35.93% |
| 67 | `CSc1ccc(CN(C)Cc2noc(C(C)(C)C)n2)cc1` | 10.91% |
| 68 | `CNC(=O)CN(C)C(=O)c1ccc(-c2nc(C)cs2)cc1` | -4.161% |
| 69 | `Cc1cccc(NC(=O)NCCCn2nc3ccccn3c2=O)c1C` | -13.8% |
| 70 | `[H][C@@]12COC[C@]1(C(=O)NCc1cccs1)CN(Cc1cnn(C)c1)C2` | 8.215% |
| 71 | `CN(CC(=O)NCC(F)(F)F)C(=O)c1ccc(=O)[nH]c1` | 8.22% |
| 72 | `CCN1CCN(c2cncc(Cl)n2)CC1` | -9.38% |
| 73 | `CN1CCN(C[C@@H]2CN(Cc3c(Cl)cncc3Cl)C[C@@H]2CO)CC1` | -22.72% and 0.7743% |
| 74 | `COc1ccc(C[C@H]2CNCC[C@@H]2OCC2CC2)cc1` | -7.603% |
| 75 | `Cc1cccnc1NCCNC(=O)[C@H]1CNC[C@@H](C(=O)N2CCCC2)C1` | -1.487% |
| 76 | `N#Cc1cccc(C(=O)N2CCc3ncc(Cn4cccn4)n3CC2)c1` | -17.67% |
| 77 | `Cc1cscc1C(=O)NC1CC(=O)N(C(C)C)C1=O` (stereo unspecified) | 11.47% |
| 78 | `Cn1ccnc1CN1CCCN(C(=O)c2ccc3c(c2)OCO3)CC1` | -17.5% |
| 79 | `CC(=O)N1CCCN(CCn2nc3ccccn3c2=O)CC1` | -12.51% |
| 80 | `Cc1cnccc1NCCNC(=O)[C@H]1CNC[C@H](C(=O)N2CCCC2)C1` | -3.046% |
| 81 | `Cc1ccc(CC(=O)N2CCOC(c3ncc(CN(C)C)[nH]3)C2)s1` (stereo unspecified) | 5.616% |
| 82 | `COCc1cnc2n1CCN(S(=O)(=O)c1c(C)nn(C)c1C)C2C` (stereo unspecified) | -29.76% and -10.05% |

Data taken from ChEMBL document CHEMBL3988442, “University of Dundee, Small-Polar-MMV Screening Library” (2021).